Article PMC9675456
Results are given in words; binding and its absence hold for the method and conditions named. In cells and extracts the contact can be indirect. Some entries that bind do so weakly or less than the wild type.

Chains of the proteins cited; added tags and fusions are not shown. Lines headed by an entry give the natural chain unless they say otherwise; changes in a name come on top. Residues count along the entry.
UniProt Q9BRT9: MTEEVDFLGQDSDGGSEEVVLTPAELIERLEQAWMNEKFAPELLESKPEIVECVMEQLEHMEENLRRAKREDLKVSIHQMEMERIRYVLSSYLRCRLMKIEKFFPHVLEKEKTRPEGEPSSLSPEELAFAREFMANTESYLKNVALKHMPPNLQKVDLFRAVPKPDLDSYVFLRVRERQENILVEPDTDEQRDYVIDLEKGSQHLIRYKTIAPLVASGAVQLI
Myc-GINS4 Q191X: residues 1-190 of Q9BRT9

What was measured:
Assay in all cases: co-IP; Myc-GINS4 (WT, V171L or Q191X) precipitated with myc-Trap magnetic agarose beads from HEK293T whole cell extracts 48 h after transfection; Co-IP buffer (10 mM Tris-HCl pH 7.5, 150 mM NaCl, EDTA, 0.5% NP40) with 75 U/mL DNase I and 2.5 mM MgCl2, 30 min at 4°C; blots probed for GINS1, GINS2, GINS3 and MYC
Myc-GINS4 WT (human) = Myc-GINS4 WT (human) (UniProt Q9BRT9)
Myc-GINS4 Q191X (human) = Myc-GINS4 Q191X (human) (UniProt Q9BRT9)
Myc-GINS4-V171L (human) = Myc-GINS4-V171L (human) (UniProt Q9BRT9)

Binder	binding (Myc-GINS4 WT (human))	binding (Myc-GINS4 Q191X (human))	binding (Myc-GINS4-V171L (human))
GINS1 (protein, UniProt Q14691 1-196) MFCEKAMELIRELHRAPEGQLPAFNEDGLRQVLEEMKALYEQNQSDVNEAKSGGRSDLIPTIKFRHCSLLRNRRCTVAYLYDRLLRIRALRWEYGSVLPNALRFHMAAEEMEWFNNYKRSLATYMRSLGGDEGLDITQDMKPPKSLYIEVRCLKDYGEFEVDDGTSVLLKKNSQHFLPRWKCEQLIRQGVLEHILS	binds	binds weakly	binds
GINS2 (protein, UniProt Q9Y248 1-185) MDAAEVEFLAEKELVTIIPNFSLDKIYLIGGDLGPFNPGLPVEVPLWLAINLKQRQKCRLLPPEWMDVEKLEKMRDHERKEETFTPMPSPYYMELTKLLLNHASDNIPKADEIRTLVKDMWDTRIAKLRVSADSFVRQQEAHAKLDNLTLMEINTSGTFLTQALNHMYKLRTNLQPLESTQSQDF	binds	binds	binds
GINS3 (protein, UniProt Q9BRX5 1-216) MSEAYFRVESGALGPEENFLSLDDILMSHEKLPVRTETAMPRLGAFFLERSAGAETDNAVPQGSKLELPLWLAKGLFDNKRRILSVELPKIYQEGWRTVFSADPNVVDLHKMGPHFYGFGSQLLHFDSPENADISQSLLQTFIGRFRRIMDSSQNAYNEDTSALVARLDEMERGLFQTGQKGLNDFQCWEKGQASQITASNLVQNYKKRKFTDMED	binds	binds weakly	binds
